Measured values from patent US20140121131A1.
These are yes or no findings as the source states them, for the method shown. Some entries that bind do so weakly or less than the wild type. Where a sequence is shown, tags or fusion partners need not be part of it.

Biological target: biotinylated His6-GFP [GFP: P42212]
Assay: phage capture on streptavidin Dynal beads labelled with biotinylated His6-GFP

B1: αGFP::I27::gpL fusion protein (VHH)
chain: MGDGMQVQLVESGGALVQPGGSLRLSCAASGFPVNRYSMRWYRQAPGKEREWVAGMSSAGDRSSYEDSVKGRFTISRDDARNTVYLQMNSLKPEDTAVYYSNVNVGFEYWGQGTQVTVSSNSSSQTSLIEVEKPLYGVEVFVGETAHFEIELSEPDVHGQWKLKGQPLTASPDCEIIEDGKKHILILHNCQLGMTGEVSFQAANAKSAANLKVKELNSSSDYKDDDDKGNGTLIIPRKEAPVSGEGTVVIPQPAGDEPVIKNTFFFPDIDPKRVRERMRLEQTVAPARLREAIKSGMAETNAELYEYREQKIAAGFTRLADVPADDIDGESIKVFYYERAVCAMATASLYERYRGVDASAKGDKKADSIDSTIDELWRDMRWAVARIQGKPRCIVSQI
B1 was tested. Which binding did it give?
The binding was “binds”.
